Values from PubChem BioAssay AID1259314 (Drosophila RNAi Screening Center, 2017).
The deposit covers about 3,100 reagents; this is a part drawn at random. Of all reagents, 289 (9.3%) got an active call. 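Active includes both higher and lower ATP than plate average; check the z-score sign for direction.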 Entries without a mark were called inactive. Reagents against one gene are numbered here. The record does not give: the amount of reagent.

Aim: 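Genes whose knock-down alters cell survival under toxic manganese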 (primary screen)
Cell system: Drosophila S2R+ cells
Reagent: long dsRNA against Drosophila genes
Time to read-out: 5 days (4 days knock-down, then 1 day metal exposure)
Treatment: manganese chloride added to 15 mM for 24 hours
Measured: 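Cellular ATP measured by luciferase light, scaled to the plate mean, averaged across replicates and z-scored over plates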
Direction: mean ATP z-score: higher = more ATP than the plate average, more viable cells under manganese
Active means: 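Called active when the mean ATP z-score is above 1.5 or below -1.5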
Meaning of the calls: active = strong ATP change, up or down; inactive = no strong ATP change

CG4480 (GeneID 34864): mean ATP z-score = 0.531
CarT (GeneID 35334) #1: mean ATP z-score = 3.98 (active)
CarT (GeneID 35334) #2: mean ATP z-score = 0.536
Eglp2 (GeneID 37737) #1: mean ATP z-score = -0.994
Eglp2 (GeneID 37737) #2: mean ATP z-score = 0.486
Sh (GeneID 32780) #1: mean ATP z-score = -0.0935
Sh (GeneID 32780) #2: mean ATP z-score = 1.91 (active)
Sh (GeneID 32780) #3: mean ATP z-score = -0.0811
CG32547 (GeneID 3346150) #1: mean ATP z-score = -0.302
CG32547 (GeneID 3346150) #2: mean ATP z-score = 1.53 (active)
CG30344 (GeneID 246552): mean ATP z-score = -0.451
CG8908 (GeneID 37293) #1: mean ATP z-score = 0.485
CG8908 (GeneID 37293) #2: mean ATP z-score = -0.808
CG3106 (GeneID 31909) #1: mean ATP z-score = 0.296
CG3106 (GeneID 31909) #2: mean ATP z-score = 1.34
Dic4 (GeneID 40039): mean ATP z-score = -0.189
Or49a (GeneID 36350) #1: mean ATP z-score = -0.457
Or49a (GeneID 36350) #2: mean ATP z-score = -1.24
Tango9 (GeneID 41450): mean ATP z-score = 0.245

Hits (from the list above):
CarT (GeneID 35334) #1: mean ATP z-score = 3.98 (active)
Sh (GeneID 32780) #2: mean ATP z-score = 1.91 (active)
CG32547 (GeneID 3346150) #2: mean ATP z-score = 1.53 (active)
